Results are given in words; binding and its absence hold for the method and conditions named. Binding seen in cells or lysates may run through a third protein. Here binding means that the protein was enriched with, or labelled near, the bait; the list need not be complete.
Biological target: GST-Dyn1xA-PRR (dynamin 1xA proline-rich region, amino acids 746-864) (rat) (UniProt P21575)
Assay: affinity purification with mass spectrometry; 40 kDa band of the GST-Dyn1-PRR pull-down from rat brain synaptosomal lysate excised, digested with Lys-C/trypsin, LC-MS/MS and targeted SRM for Endophilin A1, A2, A3; only the target purified

The chains behind the UniProt entries cited, without tags or fusion partners. Residues count along the entry.
UniProt P21575, residues 746-864: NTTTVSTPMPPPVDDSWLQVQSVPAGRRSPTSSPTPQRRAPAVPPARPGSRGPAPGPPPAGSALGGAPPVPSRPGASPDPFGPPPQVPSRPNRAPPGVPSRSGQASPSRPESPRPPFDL
UniProt O35180: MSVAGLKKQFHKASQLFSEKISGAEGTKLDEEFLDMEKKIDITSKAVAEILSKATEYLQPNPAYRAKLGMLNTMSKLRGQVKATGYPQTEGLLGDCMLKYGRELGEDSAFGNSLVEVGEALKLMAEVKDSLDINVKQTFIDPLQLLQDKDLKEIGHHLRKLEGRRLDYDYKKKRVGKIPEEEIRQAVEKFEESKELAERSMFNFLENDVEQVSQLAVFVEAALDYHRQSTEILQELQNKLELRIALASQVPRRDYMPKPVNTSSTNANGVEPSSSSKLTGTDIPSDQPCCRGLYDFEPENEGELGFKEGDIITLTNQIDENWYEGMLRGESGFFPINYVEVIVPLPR

binding: binds
Substance: Endophilin A3 (from UniProt O35180 1-347)

From article PMC11329700
